Measured values: publication doi:10.1101/2023.12.12.571217

Chains of the proteins cited; added tags and fusions are not shown.
UniProt Q6P5F9: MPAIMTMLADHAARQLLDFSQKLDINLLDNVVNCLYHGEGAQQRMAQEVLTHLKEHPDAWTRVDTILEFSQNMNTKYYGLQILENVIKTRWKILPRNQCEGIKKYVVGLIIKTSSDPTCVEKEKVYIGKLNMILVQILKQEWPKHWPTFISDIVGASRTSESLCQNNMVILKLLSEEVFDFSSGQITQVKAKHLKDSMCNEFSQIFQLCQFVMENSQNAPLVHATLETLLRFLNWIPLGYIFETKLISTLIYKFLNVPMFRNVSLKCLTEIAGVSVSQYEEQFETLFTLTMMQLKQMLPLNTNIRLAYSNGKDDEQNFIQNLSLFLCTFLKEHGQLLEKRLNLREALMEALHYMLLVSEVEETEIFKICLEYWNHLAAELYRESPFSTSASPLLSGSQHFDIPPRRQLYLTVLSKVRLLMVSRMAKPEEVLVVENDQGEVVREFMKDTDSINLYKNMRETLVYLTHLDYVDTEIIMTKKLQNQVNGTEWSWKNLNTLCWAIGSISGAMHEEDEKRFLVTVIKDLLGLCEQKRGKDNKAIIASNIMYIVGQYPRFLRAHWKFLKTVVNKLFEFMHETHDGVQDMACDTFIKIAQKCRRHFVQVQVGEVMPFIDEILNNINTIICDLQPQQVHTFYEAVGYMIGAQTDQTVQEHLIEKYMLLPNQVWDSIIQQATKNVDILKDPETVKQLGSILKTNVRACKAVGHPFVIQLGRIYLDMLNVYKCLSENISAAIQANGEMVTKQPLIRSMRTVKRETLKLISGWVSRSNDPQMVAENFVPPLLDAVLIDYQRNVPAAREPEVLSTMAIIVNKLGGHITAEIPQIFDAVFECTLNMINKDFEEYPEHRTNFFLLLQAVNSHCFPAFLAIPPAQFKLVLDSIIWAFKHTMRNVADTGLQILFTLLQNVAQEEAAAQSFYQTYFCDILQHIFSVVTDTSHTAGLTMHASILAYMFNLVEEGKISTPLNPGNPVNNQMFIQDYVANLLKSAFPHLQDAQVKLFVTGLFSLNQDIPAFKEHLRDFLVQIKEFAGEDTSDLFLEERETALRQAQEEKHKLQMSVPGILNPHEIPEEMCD
UniProt Q7TMY7: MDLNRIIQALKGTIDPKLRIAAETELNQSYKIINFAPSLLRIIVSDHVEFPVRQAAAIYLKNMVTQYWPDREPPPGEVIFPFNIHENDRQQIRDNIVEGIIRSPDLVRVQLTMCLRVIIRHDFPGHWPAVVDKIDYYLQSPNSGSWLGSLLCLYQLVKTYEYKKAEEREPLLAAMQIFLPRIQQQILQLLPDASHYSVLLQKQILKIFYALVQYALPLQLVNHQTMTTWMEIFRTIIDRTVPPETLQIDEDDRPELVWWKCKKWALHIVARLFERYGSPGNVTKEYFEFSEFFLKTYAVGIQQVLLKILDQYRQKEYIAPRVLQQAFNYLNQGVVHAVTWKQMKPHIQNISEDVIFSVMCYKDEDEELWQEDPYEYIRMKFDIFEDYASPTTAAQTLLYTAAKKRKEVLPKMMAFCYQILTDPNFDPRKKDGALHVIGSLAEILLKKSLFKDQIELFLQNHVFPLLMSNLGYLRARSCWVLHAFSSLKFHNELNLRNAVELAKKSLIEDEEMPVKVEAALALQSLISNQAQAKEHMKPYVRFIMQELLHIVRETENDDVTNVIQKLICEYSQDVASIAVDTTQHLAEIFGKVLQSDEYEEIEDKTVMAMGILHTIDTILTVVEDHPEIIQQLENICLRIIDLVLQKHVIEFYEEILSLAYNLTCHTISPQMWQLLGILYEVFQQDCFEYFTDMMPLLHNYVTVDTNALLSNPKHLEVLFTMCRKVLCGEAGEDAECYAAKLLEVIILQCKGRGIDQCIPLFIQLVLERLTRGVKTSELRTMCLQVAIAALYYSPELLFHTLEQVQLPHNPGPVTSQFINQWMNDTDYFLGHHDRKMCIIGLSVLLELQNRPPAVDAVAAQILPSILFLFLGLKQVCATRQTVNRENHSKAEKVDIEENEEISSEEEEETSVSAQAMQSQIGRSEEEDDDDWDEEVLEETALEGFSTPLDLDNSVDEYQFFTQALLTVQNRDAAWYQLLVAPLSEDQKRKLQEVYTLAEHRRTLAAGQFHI
UniProt P97820: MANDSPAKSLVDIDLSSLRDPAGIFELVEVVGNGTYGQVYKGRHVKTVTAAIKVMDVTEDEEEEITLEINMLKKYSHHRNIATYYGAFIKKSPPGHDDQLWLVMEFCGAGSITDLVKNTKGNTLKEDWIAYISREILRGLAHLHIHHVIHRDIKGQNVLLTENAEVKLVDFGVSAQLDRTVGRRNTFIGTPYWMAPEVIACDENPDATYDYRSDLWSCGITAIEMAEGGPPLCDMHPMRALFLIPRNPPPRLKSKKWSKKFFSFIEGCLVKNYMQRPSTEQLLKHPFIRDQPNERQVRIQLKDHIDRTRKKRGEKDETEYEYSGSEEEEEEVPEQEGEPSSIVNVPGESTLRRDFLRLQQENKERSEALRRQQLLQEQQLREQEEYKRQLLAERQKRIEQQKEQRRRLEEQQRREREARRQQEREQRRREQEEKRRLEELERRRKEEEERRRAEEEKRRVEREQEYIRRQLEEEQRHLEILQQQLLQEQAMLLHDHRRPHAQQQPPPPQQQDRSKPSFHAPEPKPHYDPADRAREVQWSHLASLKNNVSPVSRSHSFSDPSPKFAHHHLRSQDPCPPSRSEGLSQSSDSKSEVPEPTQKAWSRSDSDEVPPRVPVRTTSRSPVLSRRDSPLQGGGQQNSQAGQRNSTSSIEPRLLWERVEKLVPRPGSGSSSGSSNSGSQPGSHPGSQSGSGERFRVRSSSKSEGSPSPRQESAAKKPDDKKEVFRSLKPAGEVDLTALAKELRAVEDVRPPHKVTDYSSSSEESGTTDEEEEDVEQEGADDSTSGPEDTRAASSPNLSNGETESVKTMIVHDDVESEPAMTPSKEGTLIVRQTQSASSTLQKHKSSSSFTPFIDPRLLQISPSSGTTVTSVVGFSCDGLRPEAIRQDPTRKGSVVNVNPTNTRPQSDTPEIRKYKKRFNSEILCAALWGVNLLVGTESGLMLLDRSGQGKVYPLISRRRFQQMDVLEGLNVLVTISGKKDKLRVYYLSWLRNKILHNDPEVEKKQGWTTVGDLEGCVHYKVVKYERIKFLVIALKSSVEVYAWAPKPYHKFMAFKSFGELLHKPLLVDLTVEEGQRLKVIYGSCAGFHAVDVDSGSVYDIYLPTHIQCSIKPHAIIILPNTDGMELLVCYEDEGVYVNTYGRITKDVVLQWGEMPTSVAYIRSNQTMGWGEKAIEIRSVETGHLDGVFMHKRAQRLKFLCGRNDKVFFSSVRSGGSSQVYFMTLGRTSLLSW
UniProt P80316: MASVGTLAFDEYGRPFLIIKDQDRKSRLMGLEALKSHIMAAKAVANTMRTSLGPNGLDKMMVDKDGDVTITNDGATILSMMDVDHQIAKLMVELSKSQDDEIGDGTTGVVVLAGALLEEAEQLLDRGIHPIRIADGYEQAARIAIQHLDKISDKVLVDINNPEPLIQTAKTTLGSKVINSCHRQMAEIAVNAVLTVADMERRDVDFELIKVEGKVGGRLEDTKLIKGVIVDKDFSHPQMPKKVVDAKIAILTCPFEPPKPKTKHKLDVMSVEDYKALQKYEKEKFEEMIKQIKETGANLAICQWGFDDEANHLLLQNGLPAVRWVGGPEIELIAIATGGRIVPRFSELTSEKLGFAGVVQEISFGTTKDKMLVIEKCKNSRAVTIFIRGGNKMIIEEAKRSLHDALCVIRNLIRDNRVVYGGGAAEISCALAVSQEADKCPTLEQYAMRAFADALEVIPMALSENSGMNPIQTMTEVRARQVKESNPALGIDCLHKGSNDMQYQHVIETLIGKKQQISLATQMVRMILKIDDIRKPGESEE
UniProt Q9ESJ0: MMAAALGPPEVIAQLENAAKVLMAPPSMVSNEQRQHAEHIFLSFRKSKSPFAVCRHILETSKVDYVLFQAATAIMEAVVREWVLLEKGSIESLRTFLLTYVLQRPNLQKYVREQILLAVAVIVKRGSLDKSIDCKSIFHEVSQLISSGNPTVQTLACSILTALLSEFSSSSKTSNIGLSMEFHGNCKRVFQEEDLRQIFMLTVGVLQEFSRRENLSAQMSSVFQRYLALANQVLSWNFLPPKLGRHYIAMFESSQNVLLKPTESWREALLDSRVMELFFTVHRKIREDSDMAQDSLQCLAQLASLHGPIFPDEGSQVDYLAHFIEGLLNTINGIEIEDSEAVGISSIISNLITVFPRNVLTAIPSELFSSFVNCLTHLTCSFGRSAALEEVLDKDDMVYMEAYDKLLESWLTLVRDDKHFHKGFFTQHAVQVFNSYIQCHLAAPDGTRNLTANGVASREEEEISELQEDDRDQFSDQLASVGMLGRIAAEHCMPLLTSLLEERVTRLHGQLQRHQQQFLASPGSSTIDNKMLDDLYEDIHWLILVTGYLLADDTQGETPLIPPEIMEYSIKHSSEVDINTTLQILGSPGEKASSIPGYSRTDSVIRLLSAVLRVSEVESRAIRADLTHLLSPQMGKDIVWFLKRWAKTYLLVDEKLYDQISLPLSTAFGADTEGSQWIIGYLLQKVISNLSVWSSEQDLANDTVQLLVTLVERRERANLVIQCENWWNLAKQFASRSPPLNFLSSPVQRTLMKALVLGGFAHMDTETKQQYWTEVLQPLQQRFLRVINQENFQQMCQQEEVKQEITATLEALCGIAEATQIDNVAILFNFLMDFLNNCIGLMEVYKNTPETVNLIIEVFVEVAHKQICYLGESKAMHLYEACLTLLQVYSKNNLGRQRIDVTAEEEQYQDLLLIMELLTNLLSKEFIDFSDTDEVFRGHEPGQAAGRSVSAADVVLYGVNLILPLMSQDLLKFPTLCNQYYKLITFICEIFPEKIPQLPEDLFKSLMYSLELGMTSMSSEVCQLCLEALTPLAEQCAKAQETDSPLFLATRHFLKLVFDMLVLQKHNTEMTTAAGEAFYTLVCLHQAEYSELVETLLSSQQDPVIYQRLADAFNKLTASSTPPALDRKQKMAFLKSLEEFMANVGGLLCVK

Molecular target: human PADI4 stably expressed in E14 mouse embryonic stem cells (hPADI4-stable) (human) (UniProt Q9UM07)
Test: affinity purification with mass spectrometry

| Molecule | binding |
| --- | --- |
| Cip2a (from UniProt Q8BWY9 1-907) | binds |
| exportin Xpo1 (from UniProt Q6P5F9 1-1071) | binds |
| importin Ipo8 (from UniProt Q7TMY7 1-1010) | binds |
| mitogen-activated protein kinase Map4k4 (from UniProt P97820 1-1233) | binds |
| Cct3 (protein, UniProt P80318 1-545) MMGHRPVLVLSQNTKRESGRKVQSGNINAAKTIADIIRTCLGPKSMMKMLLDPMGGIVMTNDGNAILREIQVQHPAAKSMIEISRTQDEEVGDGTTSVIILAGEMLSVAEHFLEQQMHPTVVISAYRMALDDMISTLKKISTPVDVNNREMMLSIINSSITTKVISRWSSLACNIALDAVKTVQFEENGRKEIDIKKYARVEKIPGGIIEDSCVLRGVMINKDVTHPRMRRYIKNPRIVLLDSSLEYKKGESQTDIEITREEDFTRILQMEEEYIHQLCEDIIQLKPDVVITEKGISDLAQHYLMRANVTAIRRVRKTDNNRIARACGARIVSRPEELREDDVGTGAGLLEIKKIGDEYFTFITDCKDPKACTILLRGASKEILSEVERNLQDAMQVCRNVLLDPQLVPGGGASEMAVAHALTEKSKAMTGVEQWPYRAVAQALEVIPRTLIQNCGASTIRLLTSLRAKHTQESCETWGVNGETGTLVDMKELGIWEPLAVKLQTYKTAVETAVLLLRIDDIVSGHKKKGDDQNRQTGAPDAGQE | binds |
| Cct8 (protein, UniProt P42932 1-548) MALHVPKAPGFAQMLKDGAKHFSGLEEAVYRNIQACKELAQTTRTAYGPNGMNKMVINRLEKLFVTNDAATILRELEVQHPAAKMIVMASHMQEQEVGDGTNFVLVFAGALLELAEELLRIGLSVSEVISGYEIACKKAHEILPELVCCSAKNLRDVDEVSSLLRTSIMSKQYGSETFLAKLIAQACVSIFPDSGNFNVDNIRVCKILGSGIYSSSVLHGMVFKKETEGDVTSVKDAKIAVYSCPFDGMITETKGTVLIKTAEELMNFSKGEENLMDAQVKAIAGTGANVIVTGGKVADIALHYANKYNIMLVRLNSKWDLRRLCKTVGATALPKLTPPVQEEMGHCDSVYLSEVGDTQVVVFKHEKEDGAISTIVLRGSTDNLMDDIERAVDDGVNTFKVLTRDKRLVPGGGATEIELAKQITSYGETCPGLEQYAIKKFAEAFEAIPRALAENSGVKANEVISKLYSVHQEGNKNVGLDIEAEVPAVKDMLEASILDTYLGKYWAIKLATNAAVTVLRVDQIIMAKPAGGPKPPSGKKDWDDDQND | binds |

The remaining lines, values ahead:

| binding | Molecule |
| --- | --- |
| binds | Cct5 (from UniProt P80316 1-541) |
| binds | exportin Xpo4 (from UniProt Q9ESJ0 1-1151) |
| binds | lysine demethylase Kdm3a (protein, UniProt Q6PCM1 1-1323) MVLTLGESWPVLVGKRFLSLSAAEGNEGGQDNWDLERVAEWPWLSGTIRAVSHTDVTKKDLKVCVEFDGESWRKRRWIDVYSLQRKAFLVEHNLVLAERKSPEVPEQVIQWPAIMYKSLLDKAGLGAITSVRFLGDQQSVFVSKDLLKPIQDVNSLRLSLTDNQTVSKEFQALIVKHLDESHLLQGDKNLVGSEVKIYSLDPSTQWFSATVVHGNPSSKTLQVNCEEIPALKIVDPALIHVEVVHDNFVTCGNSTRTGAVKRKSSENNGSSVSKQAKSCSEASPSMCPVQSVPTTVFKEILLGCTAATPSSKDPRQQNTPQAANSPPNIGAKLPQGCHKQNLPEELSSCLNTKPEVPRTKPDVCKEGLLSSKSSQVGAGDLKILSEPKGSCIQPKTNTDQESRLESAPQPVTGLPKECLPAKTSSKAELDIATTPELQKHLEHAASTSDDLSDKPEVKAGVTSLNSCAEKKVEPSHLGSQSQNLKETSVKVDNESCCTRSSNKTQTPPARKSVLTDPDKVRKLQQSGEAFVQDDSCVNIVAQLPKCRECRLDSLRKDKDQQKDSPVFCRFFHFRRLQFNKHGVLRVEGFLTPNKYDSEAIGLWLPLTKNVVGTDLDTAKYILANIGDHFCQMVISEKEAMSTIEPHRQVAWKRAVKGVREMCDVCDTTIFNLHWVCPRCGFGVCVDCYRMKRKNCQQGAAYKTFSWIRCVKSQIHEPENLMPTQIIPGKALYDVGDIVHSVRAKWGIKANCPCSNRQFKLFSKPALKEDLKQTSLSGEKPTLGTMVQQSSPVLEPVAVCGEAASKPASSVKPTCPTSTSPLNWLADLTSGNVNKENKEKQLTMPILKNEIKCLPPLPPLNKPSTVLHTFNSTILTPVSNNNSGFLRNLLNSSTAKTENGLKNTPKILDDIFASLVQNKTSSDSSKRPQGLTIKPSILGFDTPHYWLCDNRLLCLQDPNNKSNWNVFRECWKQGQPVMVSGVHHKLNTELWKPESFRKEFGEQEVDLVNCRTNEIITGATVGDFWDGFEDVPNRLKNDKEKEPMVLKLKDWPPGEDFRDMMPSRFDDLMANIPLPEYTRRDGKLNLASRLPNYFVRPDLGPKMYNAYGLITPEDRKYGTTNLHLDVSDAANVMVYVGIPKGQCEQEEEVLRTIQDGDSDELTIKRFIEGKEKPGALWHIYAAKDTEKIREFLKKVSEEQGQDNPADHDPIHDQSWYLDRSLRKRLYQEYGVQGWAIVQFLGDVVFIPAGAPHQVHNLYSCIKVAEDFVSPEHVKHCFWLTQEFRYLSQTHTNHEDKLQVKNVIYHAVKDAVAMLKASESSLGKP |

Results are given in words; binding and its absence hold for the method and conditions named. Binding seen in cells or lysates may run through a third protein. These calls come from enrichment with a bait or labelling near it, and not all partners need be listed.
